No constants are given. Whether binding was seen depends on the method and setting.
Key:
[1] = target: C. albicans HSP90-mNeonGreen (C. albicans) (UniProt P46598); assay: FRET or BRET; as the specificity experiment (donor 1 µM, acceptor 0-2250 nM) but ATP omitted from the buffer; both purified
[2] = target: C. albicans HSP90-mNeonGreen (C. albicans) (UniProt P46598); assay: FRET or BRET; screening conditions, non-binding control: 1 µM donor, 2 µM acceptor, reaction buffer, 1% DMSO, no ATP, 15 min at 30 °C (C. albicans) or 37 °C (human); both purified

Sequences of proteins named here, by UniProt entry; tags and fusion partners are left off.
UniProt P46598: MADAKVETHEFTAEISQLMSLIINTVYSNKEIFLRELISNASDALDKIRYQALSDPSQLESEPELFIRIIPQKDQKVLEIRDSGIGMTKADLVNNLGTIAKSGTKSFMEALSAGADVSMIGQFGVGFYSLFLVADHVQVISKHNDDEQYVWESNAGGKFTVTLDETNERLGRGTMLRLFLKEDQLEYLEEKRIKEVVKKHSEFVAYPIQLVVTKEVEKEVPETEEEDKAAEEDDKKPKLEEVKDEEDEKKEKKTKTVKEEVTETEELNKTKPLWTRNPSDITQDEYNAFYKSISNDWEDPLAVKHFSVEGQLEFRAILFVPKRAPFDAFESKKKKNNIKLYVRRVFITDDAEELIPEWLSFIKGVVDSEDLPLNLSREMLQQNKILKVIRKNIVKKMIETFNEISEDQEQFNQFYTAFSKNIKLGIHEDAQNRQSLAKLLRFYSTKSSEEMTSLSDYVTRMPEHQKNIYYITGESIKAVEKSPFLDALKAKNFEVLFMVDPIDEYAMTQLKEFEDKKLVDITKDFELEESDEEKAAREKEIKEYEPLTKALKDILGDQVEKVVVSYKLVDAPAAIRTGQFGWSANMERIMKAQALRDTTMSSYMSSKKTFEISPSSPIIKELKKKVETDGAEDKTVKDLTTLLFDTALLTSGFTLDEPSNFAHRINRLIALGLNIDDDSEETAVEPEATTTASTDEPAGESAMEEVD
UniProt A0A1D8PQ94: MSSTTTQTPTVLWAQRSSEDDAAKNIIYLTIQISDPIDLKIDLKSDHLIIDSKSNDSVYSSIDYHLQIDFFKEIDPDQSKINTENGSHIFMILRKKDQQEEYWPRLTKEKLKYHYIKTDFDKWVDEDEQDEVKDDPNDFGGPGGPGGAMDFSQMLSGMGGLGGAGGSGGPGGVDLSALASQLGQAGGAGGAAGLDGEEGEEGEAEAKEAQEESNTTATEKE

C. albicans Sba1-mScarlet-I (from UniProt A0A1D8PQ94 1-221)
binding [1]: no binding (condition: ATP omitted from the buffer) | binding [2]: no binding (condition: no ATP)
